Measurements from patent US5459237A, “Peptide compositions and uses therefor” (priority 1992, dated 1995).
At least one peptide structure holds a part that was inferred or is arguable (an end, a ring closure or a residue). Ends that are not written are not given here.

Key:
E. coli ATCC 25922 = assay: Antibacterial assay, broth microdilution MIC; assay type: cell-based; conditions: Mueller Hinton broth, 16-20 hours at 37° C., lowest concentration producing a clear well
S. aureus ATCC 25923 = assay: Antibacterial assay, broth microdilution MIC; assay type: cell-based; conditions: Mueller Hinton broth, 16-20 hours at 37° C., lowest concentration producing a clear well

Substance | MIC (E) (E. coli ATCC 25922) | MIC (S) (S. aureus ATCC 25923)
KIAGKIAAIAGKIAKIAGKIA-NH2 [Peptide (SEQ ID NO:66)] | 8 µg/mL | 16 µg/mL
KIAGKVAKIAGKVAKIAGKVA-NH2 [Peptide (SEQ ID NO:32), (Lys Ile Ala Gly Lys Val Ala)3 --NH2] | 32 µg/mL | 64,128 μg/ml
KLASKAAKIAAKIAKVALKAL-NH2 [Peptide (SEQ ID NO:61)] | 4,8 μg/ml | 2.4 µg/mL
KIAGKIAKIAGKIAAIAGKIA-NH2 [Peptide (SEQ ID NO:67)] | 4,8 μg/ml | 16 µg/mL
KIAKKIAKIAKKIAKIAKKIA-NH2 [Peptide (SEQ ID NO:62), (Lys Ile Ala Lys Lys Ile Ala)3 --NH2] | 4 µg/mL | 4 µg/mL
